Results taken from paper doi:10.1101/2021.03.03.433707.
Results are given in words; binding and its absence hold for the method and conditions named. A result given as binding can be weak or reduced; the word gives no strength.

Target: T1, MukB long hinge (LH, 568-863) (E. coli) (UniProt P22523)
T1 sequence: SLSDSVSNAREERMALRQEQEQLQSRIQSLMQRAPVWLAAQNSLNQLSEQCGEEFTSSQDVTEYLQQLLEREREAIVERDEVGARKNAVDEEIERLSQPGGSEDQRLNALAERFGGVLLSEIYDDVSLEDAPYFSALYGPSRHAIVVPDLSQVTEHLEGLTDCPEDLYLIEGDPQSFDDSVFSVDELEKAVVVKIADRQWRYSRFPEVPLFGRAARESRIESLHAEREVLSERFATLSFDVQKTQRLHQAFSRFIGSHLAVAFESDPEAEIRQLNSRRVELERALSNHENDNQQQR
Experiment: SEC

binding: binds
Substance: MBP-ParC^CTD (ParC C-terminal domain with N-terminal MBP fusion) (E. coli) (domain or fragment)
